Values quoted from earlier work as cited in patent publication US10485764B2, “Lyophilized pharmaceutical compositions” (Otsuka Pharmaceutical Co., Ltd., priority 2015, dated 2019).
For at least one compound, name, drawing or mass did not settle the structure.

What was measured:
HDAC = conditions: in vitro or in vivo, from literature
protozoal = conditions: from literature

For `CCC(=O)CCCCC[C@@H]1NC(=O)[C@H]2CCCCN2C(=O)[C@H]([C@@H](C)CC)NC(=O)[C@H](Cc2cn(OC)c3ccccc23)NC1=O` [Apicidin, apicidin], the HDAC inhibition (HDAC) is listed as “nanomolar concentrations” and the antiprotozoal activity (protozoal) is listed as “potent, broad-spectrum antiprotozoal activitity”.
